Structures can show the parent of a compound that is named as a salt. The list shows a part of the results. Hit calls seldom repeat between salt and free forms of one compound.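 In K562 cells expressing nanoluciferase-fused kinases, luminescence was recorded at 4 h intervals between 2 and 18 h, normalized as percent of control with DMSO at 100% and a positive control at 0%. A significant (2 sigma) signal drop marks a time point as decreased. The authors' rule for a hit is not shown and takes in more than the number of time points.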
What follows are compounds tested against DYRK2 (UniProt Q92630) (assay: kinase-Nluc reporter destabilization hit call (1 = scored as downregulated) (binary); higher = compound decreases kinase abundance). Conditions: 2 µM; K562; 2-18 h.

Sequences of proteins named here, by UniProt entry; tags and fusion partners are left off. A change or cut given only in a name is not applied to a line headed by its entry.
UniProt Q92630: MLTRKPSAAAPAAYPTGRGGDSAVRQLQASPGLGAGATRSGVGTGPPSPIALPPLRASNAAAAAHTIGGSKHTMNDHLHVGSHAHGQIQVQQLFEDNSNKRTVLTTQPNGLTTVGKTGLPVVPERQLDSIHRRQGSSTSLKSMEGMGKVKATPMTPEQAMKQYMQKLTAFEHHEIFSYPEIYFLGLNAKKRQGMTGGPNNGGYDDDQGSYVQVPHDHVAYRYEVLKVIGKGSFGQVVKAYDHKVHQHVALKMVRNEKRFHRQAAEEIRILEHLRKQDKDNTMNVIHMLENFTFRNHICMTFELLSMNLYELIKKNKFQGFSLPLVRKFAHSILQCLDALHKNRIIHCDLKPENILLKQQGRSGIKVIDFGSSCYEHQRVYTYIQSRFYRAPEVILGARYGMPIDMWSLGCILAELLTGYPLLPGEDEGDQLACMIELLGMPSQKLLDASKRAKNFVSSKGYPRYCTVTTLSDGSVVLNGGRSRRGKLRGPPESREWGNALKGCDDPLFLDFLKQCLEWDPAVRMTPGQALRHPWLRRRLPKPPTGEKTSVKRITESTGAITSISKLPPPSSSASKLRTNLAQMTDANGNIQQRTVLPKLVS

kinase-Nluc reporter destabilization hit call, inactive:
CCc1nc(C(N)=O)c(Nc2ccc(N3CCC(N4CCN(C)CC4)CC3)c(OC)c2)nc1NC1CCOCC1 [Gilteritinib] 0
CCc1nc(C(N)=O)c(Nc2ccc(N3CCC(N4CCN(C)CC4)CC3)c(OC)c2)nc1NC1CCOCC1 [Gilteritinib hemifumarate] 0
Cc1[nH]c(/C=C2\C(=O)Nc3ccc(F)cc32)c(C)c1C(=O)NCCN1CCCC1 [Toceranib (phosphate)] 0
Cc1[nH]c(/C=C2\C(=O)Nc3ccc(F)cc32)c(C)c1C(=O)NCCN1CCCC1 [Toceranib] 0

Same assay, conditions: 2.5 µM; K562; 2-18 h

kinase-Nluc reporter destabilization hit call, inactive:
C=CC(=O)Nc1cc(Nc2nccc(-c3cn(C)c4ccccc34)n2)c(OC)cc1N(C)CCN(C)C [Osimertinib mesylate] 0
c1cc(-c2cnn3cc(-c4ccc(OCCN5CCCCC5)cc4)cnc23)ccn1 [Dorsomorphin] 0
CN(C)C/C=C/C(=O)Nc1cc2c(Nc3ccc(F)c(Cl)c3)ncnc2cc1O[C@H]1CCOC1 [Afatinib (dimaleate)] 0
C=CC(=O)Nc1cc(Nc2nccc(-c3cn(C)c4ccccc34)n2)c(OC)cc1N(C)CCN(C)C [Osimertinib] 0
CN(C)C(=O)c1cc2cnc(Nc3ccc(N4CCNCC4)cn3)nc2n1C1CCCC1 [Ribociclib hydrochloride] 0
COc1ccc(S(=O)(=O)Nc2ccccc2CN(C)C/C=C/c2ccc(Cl)cc2)cc1 [KN-92 (hydrochloride)] 0
COc1ccc(S(=O)(=O)Nc2ccccc2CN(C)C/C=C/c2ccc(Cl)cc2)cc1 [KN-92 (phosphate)] 0

2 neighbouring records already listed, for reference:
kinase-Nluc reporter destabilization hit call, inactive:
COc1ccc(S(=O)(=O)Nc2ccccc2CN(C)C/C=C/c2ccc(Cl)cc2)cc1 [KN-92 (hydrochloride)] 0
COc1ccc(S(=O)(=O)Nc2ccccc2CN(C)C/C=C/c2ccc(Cl)cc2)cc1 [KN-92 (phosphate)] 0

Same assay, conditions: 10 µM; K562; 2-18 h

kinase-Nluc reporter destabilization hit call, inactive:
CCS(=O)(=O)N1CCN(c2ccc(Nc3ncc(C(N)=O)c(NC4CC4)n3)cc2)CC1 [Cerdulatinib (hydrochloride)] 0
C[C@@H](N)c1ccc(C(=O)Nc2ccnc3[nH]ccc23)cc1 0
COc1ncc(F)cc1CNc1ccc(Cc2c[nH]c3ncc(C)cc23)c(F)n1 0
CCS(=O)(=O)N1CC(CC#N)(n2cc(-c3ncnc4[nH]ccc34)cn2)C1 [Baricitinib (phosphate)] 0
COC(=O)[C@H](CC(C)C)NC(=O)c1ccc(NC[C@@H](N)CS)cc1-c1cccc2ccccc12 [GGTI298 (Trifluoroacetate)] 0
COCCOc1cc(F)c2c(Nc3ccc(NC(=O)Cn4cc(C(C)C)nn4)cc3)ncnc2c1 [AZD3229 Tosylate] 0
CC(C)(C)n1nc(-c2cccc3ccccc23)c2c(N)ncnc21 [1-Naphthyl PP1] 0
N#CCNC(=O)c1ccc(-c2ccnc(Nc3ccc(N4CCOCC4)cc3)n2)cc1 [Momelotinib sulfate] 0
Cn1ncc(Cl)c1-c1cc(C(=O)N[C@H](CN)Cc2cccc(F)c2)sc1Cl [Afuresertib] 0
CNC(=O)c1ccc(Nc2ncc(C(F)(F)F)c(NCc3nccnc3N(C)S(C)(=O)=O)n2)cc1 [Defactinib] 0
O=C(O)c1ccc2c(c1)nc(Nc1cccc(Cl)c1)c1ccncc12 [Silmitasertib] 0
O=C(Nc1cnn2ccc(N3CCC[C@@H]3c3cc(F)ccc3F)nc12)N1CC[C@H](O)C1 [Larotrectinib] 0
COc1cc2nccc(Oc3ccc(NC(=O)C4(C(=O)Nc5ccc(F)cc5)CC4)cc3)c2cc1OC [Cabozantinib (S-malate)] 0
CN(C)C(=N)NC(=N)N [Metformin (hydrochloride)] 0
COc1ccnc(C[S+]([O-])c2nc3cc(-n4cccc4)ccc3[nH]2)c1C (stereo not given) [Ilaprazole (sodium)] 0
C#Cc1cccc(Nc2ncnc3cc4c(cc23)OCCOCCOCCO4)c1 [Icotinib (Hydrochloride)] 0
CC(C)NC[C@@H](C(=O)N1CCN(c2ncnc3c2[C@H](C)C[C@H]3O)CC1)c1ccc(Cl)cc1 [Ipatasertib] 0
CC(=O)c1c(C)c2cnc(Nc3ccc(N4CCNCC4)cn3)nc2n(C2CCCC2)c1=O [Palbociclib (monohydrochloride)] 0
C#Cc1cccc(Nc2ncnc3cc(OCCOC)c(OCCOC)cc23)c1 [Erlotinib] 0

— the supplement of paper PMC12823440, “Inhibitors supercharge kinase turnover through native proteolytic circuits” (Nature, 2025)
